The supplement of paper PMC6078165

Tested on: MDAMB468
Assay: relative JC-1 red fluorescence (viability) vs pre-drug, coculture with fibroblast (fraction); higher = more viable cancer cells
Procedure: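 JC-1 labelled TNBC cells cocultured 1:1 (1,500 cells each) with CellTrace Violet stained primary or stromal fibroblasts in 384-well plates in FluoroBrite medium, treated with one of 42 anticancer drugs at 0.1, 1, 10 or 100 uM. JC-1 red fluorescence (mitochondrial integrity in cancer cells only) was read by plate reader every 8 h for 72 h. Values are normalised to each well's pre-drug value. The stock of one drug was tenfold lower, so its dose labels may be too high.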

CN(Cc1cnc2nc(N)nc(N)c2n1)c1ccc(C(=O)N[C@@H](CCC(=O)O)C(=O)O)cc1 [Methotrexate]
relative JC-1 red fluorescence
Settings | 8 h | 16 h | 24 h | 32 h | 40 h | 48 h | 56 h | 64 h | 72 h
0.1 µM, coculture fibroblast: C12385 | 0.891 | 0.81 | 0.779 | 0.732 | 0.6825 | 0.677 | 0.628 | 0.615 | 0.616
0.1 µM, coculture fibroblast: H6013 | 0.898 | 0.838 | 0.792 | 0.7774 | 0.742 | 0.75431 | 0.7292 | 0.729 | 0.68
0.1 µM, coculture fibroblast: H6019 | 0.806 | 0.793 | 0.783 | 0.735 | 0.701 | 0.682 | 0.638 | 0.61 | 0.585
0.1 µM, coculture fibroblast: H6076 | 0.8 | 0.863 | 0.867 | 0.8784 | 0.76 | 0.852 | 0.812 | 0.796 | 0.817
0.1 µM, coculture fibroblast: H6231 | 0.851 | 0.857 | 0.9157 | 0.8594 | 0.818 | 0.7892 | 0.725 | 0.686 | 0.663
0.1 µM, coculture fibroblast: HADF | 0.895 | 0.827 | 0.7659 | 0.755 | 0.71 | 0.706 | 0.653 | 0.649 | 0.6
0.1 µM, coculture fibroblast: HCFa | 0.8942 | 0.847 | 0.814 | 0.788 | 0.727 | 0.723 | 0.671 | 0.63 | 0.579
0.1 µM, coculture fibroblast: HCPF | 0.895 | 0.982 | 0.905 | 0.878 | 0.817 | 0.79 | 0.731 | 0.714 | 0.693
0.1 µM, coculture fibroblast: HHSteC | 0.8784 | 0.852 | 0.813 | 0.782 | 0.751 | 0.745 | 0.681 | 0.645 | 0.584
0.1 µM, coculture fibroblast: HMF | 0.861 | 0.9751 | 0.904 | 0.87 | 0.807 | 0.783 | 0.737 | 0.711 | 0.693
0.1 µM, coculture fibroblast: HPFa | 0.955 | 0.891 | 0.844 | 0.802 | 0.761 | 0.759 | 0.693 | 0.679 | 0.625
0.1 µM, coculture fibroblast: HUF | 0.9065 | 0.838 | 0.805 | 0.7494 | 0.695 | 0.668 | 0.615 | 0.5841 | 0.55698
0.1 µM, coculture fibroblast: Hs5 | 0.853 | 0.916 | 0.834 | 0.876 | 0.889 | 0.865 | 0.822 | 0.785 | 0.821
0.1 µM, coculture fibroblast: Hs27A | 0.914 | 0.875 | 0.838 | 0.827 | 0.742 | 0.738 | 0.692 | 0.682 | 0.656
0.1 µM, coculture fibroblast: Hs343T | 0.895 | 0.9595 | 0.898 | 0.8543 | 0.777 | 0.7407 | 0.6923 | 0.6748 | 0.653
0.1 µM, coculture fibroblast: WS1 | 0.882 | 0.8103 | 0.7703 | 0.718 | 0.658 | 0.623 | 0.587 | 0.564 | 0.56
1 µM, coculture fibroblast: C12385 | 0.919 | 0.816 | 0.822 | 0.79 | 0.752 | 0.744 | 0.708 | 0.699 | 0.693
1 µM, coculture fibroblast: H6013 | 0.9018 | 0.8535 | 0.831 | 0.8283 | 0.8209 | 0.845 | 0.831 | 0.823 | 0.757
1 µM, coculture fibroblast: H6019 | 0.7884 | 0.7444 | 0.702 | 0.641 | 0.593 | 0.575 | 0.525 | 0.494 | 0.471
1 µM, coculture fibroblast: H6076 | 0.9037 | 0.887 | 0.8421 | 0.8248 | 0.7597 | 0.741 | 0.697 | 0.662 | 0.717
1 µM, coculture fibroblast: H6231 | 0.8515 | 0.934 | 0.838 | 0.82 | 0.766 | 0.738 | 0.678 | 0.65 | 0.631
1 µM, coculture fibroblast: HADF | 0.9289 | 0.842 | 0.787 | 0.7668 | 0.7 | 0.686 | 0.641 | 0.629 | 0.581
1 µM, coculture fibroblast: HCFa | 0.883 | 0.8226 | 0.7656 | 0.737 | 0.669 | 0.657 | 0.599 | 0.56902 | 0.5082
1 µM, coculture fibroblast: HCPF | 0.884 | 0.916 | 0.829 | 0.798 | 0.731 | 0.698 | 0.655 | 0.637 | 0.628
1 µM, coculture fibroblast: HHSteC | 0.909 | 0.8519 | 0.804 | 0.765 | 0.732 | 0.72 | 0.665 | 0.632 | 0.576
1 µM, coculture fibroblast: HMF | 0.876 | 0.926 | 0.851 | 0.812 | 0.746 | 0.71866 | 0.669 | 0.648 | 0.62
1 µM, coculture fibroblast: HPFa | 0.951 | 0.861 | 0.816 | 0.7673 | 0.715 | 0.707 | 0.643 | 0.6184 | 0.5593
1 µM, coculture fibroblast: HUF | 0.918 | 0.8274 | 0.776 | 0.7056 | 0.6599 | 0.631 | 0.5853 | 0.5703 | 0.5546
1 µM, coculture fibroblast: Hs5 | 0.852 | 0.934 | 0.893 | 0.854 | 0.781 | 0.736 | 0.665 | 0.6273 | 0.644
1 µM, coculture fibroblast: Hs27A | 0.865 | 0.8016 | 0.735 | 0.725 | 0.668 | 0.663 | 0.625 | 0.608 | 0.57
1 µM, coculture fibroblast: Hs343T | 0.873 | 0.897 | 0.8249 | 0.793 | 0.703 | 0.672 | 0.613 | 0.59 | 0.565
1 µM, coculture fibroblast: WS1 | 0.897 | 0.7981 | 0.732 | 0.655 | 0.609 | 0.576 | 0.546 | 0.513 | 0.502

The reference is the same well before dosing, and untreated signal decays as well.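 Fibroblast labels denote human fibroblasts, mainly primary ones from uterus (C12385, HUF), lung (H6013), bone (Hs27A), adrenal (HADF) and skin (WS1), plus mammary HMF and breast cancer-associated Hs343T. Cancer cells are basal-like or mesenchymal-like triple-negative breast cancer lines. A hit is a response shift exceeding 3x replicate standard deviation. The tissue of the other fibroblasts is not given here.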
